PubChem BioAssay AID1259254 | NCATS – 2017

Aim: 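Finding genes that stop cells copying their DNA twice in one cycle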 (primary screen)
Cell system: human HCT116 colorectal cancer cells
Knock-down reagent: single siRNA against human genes
Timing: 3 days
Read-out: 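Nuclei stained with Hoechst and imaged; cell-cycle phase assigned by DNA content; G2 share scaled per plate, non-targeting siRNA 0%, GMNN siRNA 100%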
Direction: G2 robust z-score and G2 cells, % of GMNN control: higher = more G2 cells, more excess DNA replication; raw share of cells in G2: higher = larger share of cells with G2 DNA content
Call rule: 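An siRNA counts as active if its G2 robust z-score lies at least 5 MADs above the screen median; here such calls match roughly 38% of GMNN control or more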
The whole screen tested about 59,000 reagents; below is a part drawn at random. Over the whole deposit, about 1,550 (2.6%) were called active. 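G2 share is only a proxy for re-replication; each gene was hit by three separate siRNAs, and active genes were retested.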 Raw values vary from plate to plate and are shown uncorrected. Entries without a mark were called inactive. The numbers tell different reagents against one gene apart. Not stated in the record: the amount of reagent.

no.	gene	reagent no.	G2 robust z-score	G2 cells, % of GMNN control	raw share of cells in G2 (%)
1	CYP51A1 (cytochrome P450 family 51 subfamily A member 1)	1	0.318	5.21	7.21
2	CYP51A1 (cytochrome P450 family 51 subfamily A member 1)	2	5.09 (active)	38.7	19.3
3	CYP51A1 (cytochrome P450 family 51 subfamily A member 1)	3	4.12	32	13.9
4	CENPQ (centromere protein Q)	1	-1.35	-6.55	2.01
5	CENPQ (centromere protein Q)	2	0.68	7.75	7.35
6	CENPQ (centromere protein Q)	3	0.291	5.02	4.74
7	B2M (beta-2-microglobulin)	1	-0.503	-0.574	3.23
8	B2M (beta-2-microglobulin)	2	1.28	11.9	10.4
9	B2M (beta-2-microglobulin)	3	-1.14	-5.06	1.27
10	ZKSCAN8 (zinc finger with KRAB and SCAN domains 8)	1	2.1	17.7	13.1
11	ZKSCAN8 (zinc finger with KRAB and SCAN domains 8)	2	1.75	15.3	9.51
12	ZKSCAN8 (zinc finger with KRAB and SCAN domains 8)	3	0.521	6.64	6.73
13	SAGE1 (sarcoma antigen 1)	1	-0.801	-2.67	3.5
14	SAGE1 (sarcoma antigen 1)	2	0.0651	3.43	5.56
15	SAGE1 (sarcoma antigen 1)	3	0.444	6.09	5.08

The list goes on (2 carried over from the part before).
no.	gene	reagent no.	G2 robust z-score	G2 cells, % of GMNN control	raw share of cells in G2 (%)
14	SAGE1 (sarcoma antigen 1)	2	0.0651	3.43	5.56
15	SAGE1 (sarcoma antigen 1)	3	0.444	6.09	5.08
16	PCDHA1 (protocadherin alpha 1)	1	4.65	35.7	17.2
17	PCDHA1 (protocadherin alpha 1)	2	-0.761	-2.39	5.38
18	PCDHA1 (protocadherin alpha 1)	3	0.0307	3.18	5.66
19	XAGE2 (X antigen family member 2)	1	-0.289	0.937	3.73
20	XAGE2 (X antigen family member 2)	2	-0.568	-1.03	2.79
21	XAGE2 (X antigen family member 2)	3	-0.49	-0.48	2.64
22	SMARCA5 (SNF2 related chromatin remodeling ATPase 5)	1	-0.213	1.47	5.23
23	SMARCA5 (SNF2 related chromatin remodeling ATPase 5)	2	-0.382	0.28	5.36
24	SMARCA5 (SNF2 related chromatin remodeling ATPase 5)	3	-0.637	-1.52	3.85
25	SLC33A2	1	-0.181	1.69	6.46
26	SLC33A2	2	0.654	7.57	8.22
27	SLC33A2	3	-0.868	-3.14	3.29
28	PRR21 (proline rich 21)	1	1.39	12.8	7.86
29	PRR21 (proline rich 21)	2	1.06	10.4	6.18
30	PRR21 (proline rich 21)	3	0.18	4.23	5.25
